The target in one series is T1, YpdB (Escherichia coli) (UniProt P0AE39).
T1 sequence (looked up, limits assumed): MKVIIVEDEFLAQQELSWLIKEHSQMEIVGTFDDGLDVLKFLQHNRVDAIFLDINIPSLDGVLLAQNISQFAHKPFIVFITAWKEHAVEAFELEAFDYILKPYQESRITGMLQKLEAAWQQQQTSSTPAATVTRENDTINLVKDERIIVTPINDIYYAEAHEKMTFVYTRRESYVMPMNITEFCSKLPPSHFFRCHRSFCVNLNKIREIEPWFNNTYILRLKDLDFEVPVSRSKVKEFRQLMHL
As to the kind of experiment: SPR. Conditions: reference flow cell, stated no binding; SPR (Biacore T200, SA chip): HBS-EP, 10 mM HEPES pH 7.4, 150 mM NaCl, 3 mM EDTA, 0.005% P20, 25 C; recombinant protein; protein details: N-terminal 6His; label: 5' biotin on strand 1. (In SPR one partner is held on a chip, and binding of the other changes the refractive index at the surface.)

Series [1] deals with T2, YpdB-D53E (Escherichia coli) (UniProt P0AE39).
T2 sequence (looked up, limits assumed): T1 sequence (looked up, limits assumed) with D53E
The series can be described thus: SPR. Conditions: reference flow cell, stated no binding; SPR (Biacore T200, SA chip): HBS-EP, 10 mM HEPES pH 7.4, 150 mM NaCl, 3 mM EDTA, 0.005% P20, 25 C; recombinant protein; protein details: N-terminal 6His; label: 5' biotin on strand 1.

Changes are numbered by the printed parent chain. The exact form of at least one protein or probe is not confirmed. A negative result means that nothing was seen under these conditions. At least one verdict rests on a figure or table, not on a statement of the authors. Where a protein sequence is shown, tags need not be part of it.

As to “GGGGCCTTTGCCGCTCAACCGCAAAACTGACCGCTTACATCCCTAAAATAACCACTCAGTTAGGGG (double strand) [PyjiY (YehT binding site control)]”, the binding result (in the series with YpdB (Escherichia coli); in series [1]) was “no binding” in each case.

(Values after article PMC4847170, “Insights into the DNA-binding mechanism of a LytTR-type transcription regulator”.)
